From patent US20060216705

Chains of the proteins cited; added tags and fusions are not shown. Chains listed by the source or under a name are the forms on record and can include a tag or linker.
UniProt Q9HBZ2, whole entry: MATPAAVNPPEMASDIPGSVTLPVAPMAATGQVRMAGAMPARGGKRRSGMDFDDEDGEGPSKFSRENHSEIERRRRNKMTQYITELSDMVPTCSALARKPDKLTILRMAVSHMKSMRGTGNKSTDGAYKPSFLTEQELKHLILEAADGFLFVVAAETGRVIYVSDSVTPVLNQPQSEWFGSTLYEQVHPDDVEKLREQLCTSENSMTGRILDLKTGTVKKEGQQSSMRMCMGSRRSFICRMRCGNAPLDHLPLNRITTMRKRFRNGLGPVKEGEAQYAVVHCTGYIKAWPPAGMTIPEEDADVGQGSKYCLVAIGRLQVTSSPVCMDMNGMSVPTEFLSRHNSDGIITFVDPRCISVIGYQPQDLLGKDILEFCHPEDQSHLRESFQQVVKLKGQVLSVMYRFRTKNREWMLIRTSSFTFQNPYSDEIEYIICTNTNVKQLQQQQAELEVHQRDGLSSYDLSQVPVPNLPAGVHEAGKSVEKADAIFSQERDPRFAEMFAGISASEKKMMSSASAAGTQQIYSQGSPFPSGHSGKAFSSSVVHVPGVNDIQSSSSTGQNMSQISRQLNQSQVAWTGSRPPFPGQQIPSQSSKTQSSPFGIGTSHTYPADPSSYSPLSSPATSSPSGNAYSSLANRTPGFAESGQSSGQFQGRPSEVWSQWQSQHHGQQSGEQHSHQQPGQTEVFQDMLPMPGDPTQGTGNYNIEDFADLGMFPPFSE
NXF/Arnt2 heterodimer (rat NXF, human Arnt2) (Rattus norvegicus / Homo sapiens), one chain, as listed by the source: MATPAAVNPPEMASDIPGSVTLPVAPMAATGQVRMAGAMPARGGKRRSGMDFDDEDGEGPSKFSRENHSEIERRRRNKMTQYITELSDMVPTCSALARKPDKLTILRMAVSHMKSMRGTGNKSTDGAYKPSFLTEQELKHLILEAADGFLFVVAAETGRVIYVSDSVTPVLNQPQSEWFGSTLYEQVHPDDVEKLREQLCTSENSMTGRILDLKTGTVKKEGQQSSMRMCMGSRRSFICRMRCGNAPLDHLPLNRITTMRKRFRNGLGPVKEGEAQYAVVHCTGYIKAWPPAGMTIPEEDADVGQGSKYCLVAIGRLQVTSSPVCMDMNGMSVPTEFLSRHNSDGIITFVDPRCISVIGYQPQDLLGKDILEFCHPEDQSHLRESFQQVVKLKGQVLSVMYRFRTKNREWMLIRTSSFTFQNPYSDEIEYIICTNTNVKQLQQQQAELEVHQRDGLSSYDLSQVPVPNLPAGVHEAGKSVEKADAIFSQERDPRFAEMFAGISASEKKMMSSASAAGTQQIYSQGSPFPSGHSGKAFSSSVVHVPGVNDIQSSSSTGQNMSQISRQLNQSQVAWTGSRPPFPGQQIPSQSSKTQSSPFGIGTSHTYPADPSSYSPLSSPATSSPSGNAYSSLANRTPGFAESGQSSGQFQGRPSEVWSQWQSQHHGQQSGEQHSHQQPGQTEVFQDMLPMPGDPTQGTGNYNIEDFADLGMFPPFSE

Columns and labels:
[1] = test system: NXF/Arnt2 heterodimer (rat NXF, human Arnt2) (Rattus norvegicus / Homo sapiens); test: competition with a labelled probe; settings: 100x cold E-box did not compete the CME band; protein in a lysate after overexpression; protein details: full length, baculovirus Sf21 whole cell extract
Arnt2 (Homo sapiens) [2] = molecular target: Arnt2 (Homo sapiens) (UniProt Q9HBZ2); test: EMSA; settings: Arnt2 alone, no band; protein in a lysate after overexpression; protein details: full length, baculovirus Sf21 whole cell extract; label: 5'-32P
[3] = molecular target: T1, NXF (rNXF) (Rattus norvegicus) (UniProt Q8CJH6); test: EMSA; settings: NXF alone, no band; protein in a lysate after overexpression; protein details: full length, baculovirus Sf21 whole cell extract; label: 5'-32P
T1 sequence: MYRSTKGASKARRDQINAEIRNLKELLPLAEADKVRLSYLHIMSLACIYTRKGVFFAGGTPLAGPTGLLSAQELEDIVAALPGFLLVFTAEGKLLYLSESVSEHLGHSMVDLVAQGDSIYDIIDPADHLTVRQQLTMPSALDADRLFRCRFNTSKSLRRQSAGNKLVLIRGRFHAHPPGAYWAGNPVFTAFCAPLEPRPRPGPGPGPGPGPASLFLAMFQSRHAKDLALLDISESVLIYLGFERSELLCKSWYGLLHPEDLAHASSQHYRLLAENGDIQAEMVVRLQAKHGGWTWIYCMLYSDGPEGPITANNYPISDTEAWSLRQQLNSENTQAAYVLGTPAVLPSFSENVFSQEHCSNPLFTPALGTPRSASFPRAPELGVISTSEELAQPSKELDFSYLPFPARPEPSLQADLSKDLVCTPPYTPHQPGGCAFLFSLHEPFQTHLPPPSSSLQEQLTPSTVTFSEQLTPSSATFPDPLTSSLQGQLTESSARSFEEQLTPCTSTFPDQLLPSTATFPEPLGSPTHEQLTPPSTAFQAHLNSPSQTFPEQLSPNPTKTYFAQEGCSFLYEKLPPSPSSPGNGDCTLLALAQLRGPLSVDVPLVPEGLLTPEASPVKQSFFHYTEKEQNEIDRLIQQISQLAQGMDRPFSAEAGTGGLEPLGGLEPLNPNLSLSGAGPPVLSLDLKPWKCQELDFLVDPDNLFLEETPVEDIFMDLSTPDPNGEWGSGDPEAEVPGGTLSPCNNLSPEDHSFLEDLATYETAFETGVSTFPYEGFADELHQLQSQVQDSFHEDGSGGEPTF

[4] = test system: NXF/Arnt2 heterodimer (rat NXF, human Arnt2) (Rattus norvegicus / Homo sapiens); test: EMSA; settings: 20 mM HEPES pH 7.9, 100 mM NaCl, 1 mM DTT, 5% glycerol, 0.1 ug/ul poly dI-dC, 25 C; competed by 100x cold CME; protein in a lysate after overexpression; protein details: full length, baculovirus Sf21 whole cell extract; label: 5'-32P
Arnt2 (Homo sapiens) [5] = molecular target: Arnt2 (Homo sapiens) (UniProt Q9HBZ2); test: activity in cells; settings: Arnt2 alone, HeLa luciferase reporter; protein in cells; protein details: full length, pRC/RSV expression in HeLa; only the site is given
[6] = molecular target: T2, NXF (mNXF) (Mus musculus) (UniProt Q8BGD7); test: activity in cells; settings: NXF alone, HeLa luciferase reporter; protein in cells; protein details: full length, pRC/RSV expression in HeLa; only the site is given
T2 sequence: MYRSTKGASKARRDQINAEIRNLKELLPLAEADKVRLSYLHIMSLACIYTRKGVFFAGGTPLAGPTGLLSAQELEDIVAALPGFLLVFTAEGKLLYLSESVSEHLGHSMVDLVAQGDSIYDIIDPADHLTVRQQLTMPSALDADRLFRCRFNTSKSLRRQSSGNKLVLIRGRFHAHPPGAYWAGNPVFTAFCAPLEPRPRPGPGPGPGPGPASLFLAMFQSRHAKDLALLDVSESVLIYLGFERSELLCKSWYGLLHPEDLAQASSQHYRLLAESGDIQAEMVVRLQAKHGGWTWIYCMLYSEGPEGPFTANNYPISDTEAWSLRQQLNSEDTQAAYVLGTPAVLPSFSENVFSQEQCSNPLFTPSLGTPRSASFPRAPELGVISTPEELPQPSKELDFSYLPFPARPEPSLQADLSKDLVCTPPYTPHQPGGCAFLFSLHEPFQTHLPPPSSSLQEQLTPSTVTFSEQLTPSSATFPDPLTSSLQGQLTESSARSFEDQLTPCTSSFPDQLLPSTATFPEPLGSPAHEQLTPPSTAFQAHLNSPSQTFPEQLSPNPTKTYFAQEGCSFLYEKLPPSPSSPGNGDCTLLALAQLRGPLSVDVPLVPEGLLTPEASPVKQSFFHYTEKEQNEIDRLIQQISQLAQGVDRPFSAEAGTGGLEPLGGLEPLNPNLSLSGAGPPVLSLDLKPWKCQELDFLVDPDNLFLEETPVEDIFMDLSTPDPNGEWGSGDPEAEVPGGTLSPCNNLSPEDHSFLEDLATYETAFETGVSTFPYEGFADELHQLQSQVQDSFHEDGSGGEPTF

[7] = test system: NXF/Arnt2 heterodimer (mouse NXF, human Arnt2) (Mus musculus / Homo sapiens); test: activity in cells; settings: luciferase reporter in HeLa, protein in cells, protein details: full length, pRC/RSV expression in HeLa, only the site is given

CAAGTCCACGTGCAGGGA (double strand) [E-box double-stranded oligonucleotide]
binding result [1]: no binding

CTAGAAATTTGTACGTGCCACAGA (double strand) [CME double-stranded oligonucleotide]
binding result (Arnt2 (Homo sapiens) [2]): no binding
binding result [3]: no binding
binding result [4]: binds

CTAGCCTAGAAATTTGTACGTGCCACAGACTAGAAATTTGTACGTGCCACAGAG / CTAGCTCTGTGGCACGTACAAATTTCTAGTCTGTGGCACGTACAAATTTCTAGG [CMEx4 reporter insert (2-copy unit, two in tandem)]
activity on this sequence (Arnt2 (Homo sapiens) [5]): not active
activity on this sequence [6]: not active
activity on this sequence ([7]; potent activation, dose dependent on NXF (FIG. 8)): active

CTTTAGCCACGTGACAGTGTAAGCACACGTGGGCCCTCAAGTCCACGTGCAGGGAC / TCGAGTCCCTGCACGTGGACTTGAGGGCCCACGTGTGCTTACACTGTCACGTGGCTAAAGGTAC [(Ebox)x3 reporter insert]
activity on this sequence (Arnt2 (Homo sapiens) [5]): not active
activity on this sequence [6]: not active
activity on this sequence ([7]; not influenced): not active

For some of these results: No signal at the amounts used counts as a negative. For some of these results: Tags and fusion partners may be left off the protein sequences shown. For some of these results: At least one result comes from cells or an extract, where the contact may be indirect.
